According to publication PMC6799934:
These are yes or no findings as the source states them, for the method shown. In cells and extracts the contact can be indirect. Some binding calls cover weakened binding; strength is not graded here. Tags and fused reporters may be left off the sequences shown.

Target: STING-Flag (chicken STING), expressed in DF-1 (chicken) (UniProt E1C7U0)
Test: co-IP; DF-1 cells cotransfected with tagged plasmids for 36 h, with or without Meq; lysed in ice-cold Pierce IP buffer; antibodies at 4 °C overnight, Protein G Sepharose 6 h, six washes with PBS; immunoblot

B1: STING-Flag (chicken STING), expressed in DF-1 (protein, UniProt E1C7U0 1-379)
chain: MPQDPSTRSSPARLLIPEPRAGRARHAACVLLAVCFVVLFLSGEPLAPIIRSVCTQLAALQLGVLLKGCCCLAEEIFHLHSRHHGSLWQVLCSCFPPRWYLALLLVGGSAYLDPPEDNGHSPRLALTLSCLCQLLVLALGLQKLSAVEVSELTESSKKNVAHGLAWSYYIGYLKVVLPRLKECMEELSRTNPMLRAHRDTWKLHILVPLGCDIWDDLEKADSNIQYLADLPETILTRAGIKRRVYKHSLYVIRDKDNKLRPCVLEFASPLQTLCAMSQDDCAAFSREQRLEQARLFYRSLRDILGSSKECAGLYRLIAYEEPAEPESHFLSGLILWHLQQQQREEYMVQEELPLGTSSVELSLQVSSSDLPQPLRSDCP
- binding: binds
